At least one compound was matched to its structure with a doubt left.
System: AIR mRNA
Experiment: AIR mRNA expression in SH-SY5Y cells, Northern blot
Assay type: cell-based, human
Conditions: SH-SY5Y neuroblastoma cells, DEM 1 mM, 6 hours (FIG. 1B)

CCOC(=O)/C=C\C(=O)OCC [DEM, diethylmaleate]
expression of the mRNA identified by the cDNA (AIR): markedly expressed
